Reference: PMC5303877

Tests used:
Experiment in all cases: co-IP; Drosophila S2 cells co-transfected; lysis in 1% NP-40, 10 mM Tris-HCl pH 7.5, 50 mM NaCl buffer; Draper I-HA precipitated with rat anti-HA on Protein G beads at 4 °C overnight; TRAF4-myc detected by anti-myc western blot
Draper-I-HA (Drosophila) = target: T1, Draper-I-HA (Drosophila) (UniProt Q9W0A0)
T1 sequence: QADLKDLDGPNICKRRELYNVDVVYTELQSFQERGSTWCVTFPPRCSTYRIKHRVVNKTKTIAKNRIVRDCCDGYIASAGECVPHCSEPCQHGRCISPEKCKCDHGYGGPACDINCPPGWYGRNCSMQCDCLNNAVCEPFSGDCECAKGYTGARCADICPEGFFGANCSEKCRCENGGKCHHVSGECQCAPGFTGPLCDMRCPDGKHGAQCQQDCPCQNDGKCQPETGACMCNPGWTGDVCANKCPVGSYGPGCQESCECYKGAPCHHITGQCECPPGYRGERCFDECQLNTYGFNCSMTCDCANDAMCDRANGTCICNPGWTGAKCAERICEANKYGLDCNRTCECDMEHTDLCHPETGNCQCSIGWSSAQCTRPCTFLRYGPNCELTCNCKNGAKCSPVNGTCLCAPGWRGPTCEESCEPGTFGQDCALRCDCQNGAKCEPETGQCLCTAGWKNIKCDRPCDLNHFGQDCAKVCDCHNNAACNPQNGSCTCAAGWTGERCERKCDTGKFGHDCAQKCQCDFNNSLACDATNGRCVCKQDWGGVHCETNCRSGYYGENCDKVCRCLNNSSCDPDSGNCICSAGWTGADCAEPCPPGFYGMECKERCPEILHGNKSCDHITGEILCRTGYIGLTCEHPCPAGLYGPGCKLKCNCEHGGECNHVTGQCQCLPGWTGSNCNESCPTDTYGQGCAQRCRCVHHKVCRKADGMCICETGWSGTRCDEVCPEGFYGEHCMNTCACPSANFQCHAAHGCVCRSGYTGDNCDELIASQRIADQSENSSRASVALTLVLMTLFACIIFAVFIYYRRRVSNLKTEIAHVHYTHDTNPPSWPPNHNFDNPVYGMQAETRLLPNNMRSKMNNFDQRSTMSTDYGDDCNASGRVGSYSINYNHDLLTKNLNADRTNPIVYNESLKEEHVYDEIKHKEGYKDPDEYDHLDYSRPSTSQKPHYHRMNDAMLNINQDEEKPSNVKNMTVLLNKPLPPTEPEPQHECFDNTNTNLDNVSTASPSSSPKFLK

[1] = target: T2, Draper I Δ826-854-HA (Drosophila) (UniProt Q9W0A0)
T2 sequence: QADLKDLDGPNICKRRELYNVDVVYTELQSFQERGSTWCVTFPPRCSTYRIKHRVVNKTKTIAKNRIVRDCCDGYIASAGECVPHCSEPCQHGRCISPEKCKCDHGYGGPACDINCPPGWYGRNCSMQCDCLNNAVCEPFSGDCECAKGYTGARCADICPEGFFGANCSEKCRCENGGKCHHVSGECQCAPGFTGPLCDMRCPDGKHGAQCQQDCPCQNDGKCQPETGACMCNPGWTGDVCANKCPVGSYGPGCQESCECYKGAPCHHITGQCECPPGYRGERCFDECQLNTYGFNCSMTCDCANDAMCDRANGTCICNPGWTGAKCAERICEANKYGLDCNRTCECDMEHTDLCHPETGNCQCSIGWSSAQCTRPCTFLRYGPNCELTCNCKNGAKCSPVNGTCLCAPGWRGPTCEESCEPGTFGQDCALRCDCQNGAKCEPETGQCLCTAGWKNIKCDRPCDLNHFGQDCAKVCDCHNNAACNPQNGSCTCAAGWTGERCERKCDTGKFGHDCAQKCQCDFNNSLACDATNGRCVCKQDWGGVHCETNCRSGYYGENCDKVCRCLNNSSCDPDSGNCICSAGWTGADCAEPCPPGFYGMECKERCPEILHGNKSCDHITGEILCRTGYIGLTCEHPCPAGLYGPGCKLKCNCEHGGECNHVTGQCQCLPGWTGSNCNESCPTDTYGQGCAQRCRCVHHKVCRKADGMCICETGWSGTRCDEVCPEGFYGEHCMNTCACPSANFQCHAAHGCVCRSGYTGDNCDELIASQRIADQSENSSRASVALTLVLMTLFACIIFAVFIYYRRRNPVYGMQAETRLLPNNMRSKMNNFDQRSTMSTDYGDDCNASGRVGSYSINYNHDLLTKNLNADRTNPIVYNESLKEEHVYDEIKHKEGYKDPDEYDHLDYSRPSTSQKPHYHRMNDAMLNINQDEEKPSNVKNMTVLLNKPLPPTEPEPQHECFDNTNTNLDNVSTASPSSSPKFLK

[2] = target: T3, Draper I Δ855-894-HA (Drosophila) (UniProt Q9W0A0)
T3 sequence: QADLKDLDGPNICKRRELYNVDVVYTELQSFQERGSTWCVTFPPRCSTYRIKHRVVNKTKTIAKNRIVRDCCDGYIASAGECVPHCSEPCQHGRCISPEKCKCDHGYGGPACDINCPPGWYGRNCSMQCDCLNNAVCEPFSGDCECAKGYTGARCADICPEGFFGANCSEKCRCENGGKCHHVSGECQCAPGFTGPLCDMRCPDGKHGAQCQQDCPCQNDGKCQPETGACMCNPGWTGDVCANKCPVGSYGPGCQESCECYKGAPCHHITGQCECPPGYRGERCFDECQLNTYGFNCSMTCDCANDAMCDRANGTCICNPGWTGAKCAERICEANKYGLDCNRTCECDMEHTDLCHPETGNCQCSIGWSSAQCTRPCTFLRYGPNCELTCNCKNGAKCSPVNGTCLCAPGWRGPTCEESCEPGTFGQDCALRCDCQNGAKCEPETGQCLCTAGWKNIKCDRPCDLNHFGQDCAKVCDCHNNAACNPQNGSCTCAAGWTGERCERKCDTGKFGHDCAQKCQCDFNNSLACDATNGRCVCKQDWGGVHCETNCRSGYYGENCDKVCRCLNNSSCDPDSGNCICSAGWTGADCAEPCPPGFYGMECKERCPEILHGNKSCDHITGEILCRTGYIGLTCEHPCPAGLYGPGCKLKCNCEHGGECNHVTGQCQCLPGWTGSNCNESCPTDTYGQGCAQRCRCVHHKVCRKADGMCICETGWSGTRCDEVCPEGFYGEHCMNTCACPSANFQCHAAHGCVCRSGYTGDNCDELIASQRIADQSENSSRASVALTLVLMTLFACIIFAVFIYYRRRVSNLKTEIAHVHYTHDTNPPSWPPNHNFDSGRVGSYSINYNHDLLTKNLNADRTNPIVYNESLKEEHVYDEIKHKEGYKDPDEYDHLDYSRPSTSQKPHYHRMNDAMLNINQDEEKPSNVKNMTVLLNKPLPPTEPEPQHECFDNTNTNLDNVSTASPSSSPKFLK

[3] = target: T4, Draper I Y949F-HA (Drosophila) (UniProt Q9W0A0)
T4 sequence: T1 sequence with Y933F

| Substance | binding (Draper-I-HA (Drosophila)) | binding [1] | binding [2] | binding [3] |
| --- | --- | --- | --- | --- |
| C-terminal TRAF domain (TD) of TRAF4, myc-tagged (Drosophila) (domain or fragment) | no binding | – | – | – |
| TRAF4-myc (from UniProt Q9XYR0) | binds | binds | binds | binds |

Changes are numbered by the printed parent chain. No constants are given. Whether binding was seen depends on the method and setting. Binding seen in cells or lysates may run through a third protein. Binding calls can cover weak binding; strength is not graded here. Tags and fused reporters may be left off the sequences shown.
